These are yes or no findings as the source states them, for the method shown. Binding calls can cover weak binding; strength is not graded here. Where a sequence is shown, tags or fusion partners need not be part of it. Values belong to the binder of their own block, whether it stands above or below them.
Assays:
[1] = biological target: Full-length dP75 (residues 1-475), two-hybrid fusion in pBTM116 (Drosophila); assay: two-hybrid
[2] = biological target: C-terminus fragment of dP75 including the IBD, two-hybrid fusion in pBTM116 (Drosophila); assay: two-hybrid

binding [1]: no binding
B1: Jil-1 fragment residues 525-990, two-hybrid fusion in pACT2 (domain or fragment, UniProt Q9V3I5 525-990)
chain: KEHPFFNGINWQELRTKRRKAPYKPTLTAEDDVQNFSNEFTDQVPEDPECDAPPSRIRLFRGYTYVAPEHLEQMRRDNHCEIQYFNTGLQNIPCRPDDLELGTRTSNGAYGTCHFVVDSSTDLVFLAKIIPLSKFRPSEVDALISCALDTTNHKNIVSYHGTFREKCETWIVMEYLSGPELTASIRMDEDSCREIFLQLVMAVRHIHSKHFIHGDLKPENIMFENREDRTVKLIDFGSACYNNRFKSWKDKPRYTLDYAPPEMLADANLVTYSPAVDIYGLGATLYTMLVGHRPYRQNEDDVDHSAAAHHELRKRMRRGTFNQRSMRWESASPAFRHLVSWCLQRDPADRPTLSDILDSEWLQYGSNDPDVDIILPQQMVVDLSEDTMEQPTGGMFDDQQQLEFMHDKSAEDEGITLVSEPMDTTVATHESRRNAAAFSSVVAPTTDDEIVHERFDPAFEVQADFY

binding [1]: binds
B2: Full-length Jil-1 (residues 1-1207), two-hybrid fusion in pACT2 (enzyme, UniProt Q9V3I5 1-1207)
chain: MSRLQKQNYEILSGTSTSRLKNHQHPRESESLAYEEPDQMVRNHLNGQLVANGNGKTRKNSNSETMTNGKKSKLNTEGSGSGSGKTLNYNNNNNNNNSISATNGQYTNSSSKTTSASARDYTYRETISPPTPPSPPTTNVADIVCISDAESEDGRDPEREYYDQDMEEDEPNGIEIDESSSSLSKAKSNNAAAAAAAAAAAAAAAASKASSSTTPSYAMPTSNSTPLDLDNEAHQRDLEAVTDLKYYVKLYSDEAVSLNDFKIIRVLGTGAYGRVFLVRKLTRHDAGKLYAMKVLNKITVVQKRKTAEHTKTERVVLEAIQRNPFLVSLHYAFQSSSKLYLVLDFANGGELFTHLYHSENFEESRVRVYIAEVVLALEQLHQLGIIYRDIKLENILLDGEGHIVLSDFGLSKILTAENEYRAHSFCGTLEYMAPEIIRTGPPGHDSAVDWWSVGVLTFELLTGASPFATSDGQVQQSEISRRIQKEQPMIPSSFSANARDFVLKMLEKNPKRRLGGNHRDASEIKEHPFFNGINWQELRTKRRKAPYKPTLTAEDDVQNFSNEFTDQVPEDPECDAPPSRIRLFRGYTYVAPEHLEQMRRDNHCEIQYFNTGLQNIPCRPDDLELGTRTSNGAYGTCHFVVDSSTDLVFLAKIIPLSKFRPSEVDALISCALDTTNHKNIVSYHGTFREKCETWIVMEYLSGPELTASIRMDEDSCREIFLQLVMAVRHIHSKHFIHGDLKPENIMFENREDRTVKLIDFGSACYNNRFKSWKDKPRYTLDYAPPEMLADANLVTYSPAVDIYGLGATLYTMLVGHRPYRQNEDDVDHSAAAHHELRKRMRRGTFNQRSMRWESASPAFRHLVSWCLQRDPADRPTLSDILDSEWLQYGSNDPDVDIILPQQMVVDLSEDTMEQPTGGMFDDQQQLEFMHDKSAEDEGITLVSEPMDTTVATHESRRNAAAFSSVVAPTTDDEIVHERFDPAFEVQADFYGFDENAPPLPLPEEYYSELPLPEEDRQYIPPPPALIPVEPETTFRRPRTRQQRRTESQLVQPVSVATYEDSKASLRVLMQQLPPPGDNVVARIPKRTHRVVRTLPPTFGTTKREENFYGFSKTAISWRKTRASWRHFCLLINGVQQVLKVRFKKARRVYCLPHIKEEKLDHAYEKPLTFPRPKAQLKRTKREPKVPRPPTRVQPERARAMRQLYQFQ

binding [1]: no binding
B3: N-terminal domain of Jil-1 (residues 1-255), two-hybrid fusion in pACT2 (domain or fragment, UniProt Q9V3I5 1-255)
chain: MSRLQKQNYEILSGTSTSRLKNHQHPRESESLAYEEPDQMVRNHLNGQLVANGNGKTRKNSNSETMTNGKKSKLNTEGSGSGSGKTLNYNNNNNNNNSISATNGQYTNSSSKTTSASARDYTYRETISPPTPPSPPTTNVADIVCISDAESEDGRDPEREYYDQDMEEDEPNGIEIDESSSSLSKAKSNNAAAAAAAAAAAAAAAASKASSSTTPSYAMPTSNSTPLDLDNEAHQRDLEAVTDLKYYVKLYSDEA

binding [1]: no binding
B4: Jil-1 fragment residues 255-541, two-hybrid fusion in pACT2 (domain or fragment, UniProt Q9V3I5 255-541)
chain: AVSLNDFKIIRVLGTGAYGRVFLVRKLTRHDAGKLYAMKVLNKITVVQKRKTAEHTKTERVVLEAIQRNPFLVSLHYAFQSSSKLYLVLDFANGGELFTHLYHSENFEESRVRVYIAEVVLALEQLHQLGIIYRDIKLENILLDGEGHIVLSDFGLSKILTAENEYRAHSFCGTLEYMAPEIIRTGPPGHDSAVDWWSVGVLTFELLTGASPFATSDGQVQQSEISRRIQKEQPMIPSSFSANARDFVLKMLEKNPKRRLGGNHRDASEIKEHPFFNGINWQELRTK

binding [1]: binds
binding [2]: binds
B5: C-terminal fragment of Jil-1 (residues 984-1122), two-hybrid fusion in pACT2 (domain or fragment, UniProt Q9V3I5 984-1122)
chain: EVQADFYGFDENAPPLPLPEEYYSELPLPEEDRQYIPPPPALIPVEPETTFRRPRTRQQRRTESQLVQPVSVATYEDSKASLRVLMQQLPPPGDNVVARIPKRTHRVVRTLPPTFGTTKREENFYGFSKTAISWRKTRA
